Source: article PMC6886185
These are yes or no findings as the source states them, for the method shown. In cells and extracts the contact can be indirect. These calls come from enrichment with a bait or labelling near it, and not all partners need be listed.

Sequences of proteins named here, by UniProt entry; tags and fusion partners are left off.
UniProt Q14240: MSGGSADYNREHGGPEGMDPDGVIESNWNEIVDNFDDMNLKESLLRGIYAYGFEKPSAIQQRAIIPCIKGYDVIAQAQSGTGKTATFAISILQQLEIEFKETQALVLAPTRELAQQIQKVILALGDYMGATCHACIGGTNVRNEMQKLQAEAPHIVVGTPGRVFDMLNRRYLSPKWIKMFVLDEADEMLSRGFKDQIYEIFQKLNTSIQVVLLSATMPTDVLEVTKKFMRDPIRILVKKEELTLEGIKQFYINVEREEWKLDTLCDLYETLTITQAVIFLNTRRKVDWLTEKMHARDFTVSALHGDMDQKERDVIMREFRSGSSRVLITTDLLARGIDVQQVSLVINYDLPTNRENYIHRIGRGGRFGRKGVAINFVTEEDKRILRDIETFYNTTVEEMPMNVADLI

Molecular target: eIF4A2 (endogenous) (human (endogenous in HeLa)) (UniProt Q14240)
Test: affinity purification with mass spectrometry; IP of endogenous eIF4A2 (and eIF4A1, rabbit IgG) from precleared HeLa cytoplasmic lysate; 20 mM Tris-HCl pH 7.5, 200 mM NaCl, 2.5 mM MgCl2, 0.5% Triton X-100, 4C; protein G Dynabeads; LC-MS/MS, emPAI

binding: binds
B1: CLP1 (protein, UniProt Q92989 1-425)
chain: MGEEANDDKKPTTKFELERETELRFEVEASQSVQLELLTGMAEIFGTELTRNKKFTFDAGAKVAVFTWHGCSVQLSGRTEVAYVSKDTPMLLYLNTHTALEQMRRQAEKEEERGPRVMVVGPTDVGKSTVCRLLLNYAVRLGRRPTYVELDVGQGSVSIPGTMGALYIERPADVEEGFSIQAPLVYHFGSTTPGTNIKLYNKITSRLADVFNQRCEVNRRASVSGCVINTCGWVKGSGYQALVHAASAFEVDVVVVLDQERLYNELKRDLPHFVRTVLLPKSGGVVERSKDFRRECRDERIREYFYGFRGCFYPHAFNVKFSDVKIYKVGAPTIPDSCLPLGMSQEDNQLKLVPVTPGRDMVHHLLSVSTAEGTEENLSETSVAGFIVVTSVDLEHQVFTVLSPAPRPLPKNFLLIMDIRFMDLK
